The other results are listed elsewhere or left out.
What was measured:
Test in all cases: log2 fold change, soluble protein after heating vs DMSO (PISA); higher = thermal stabilisation; K562 cells, 10 uM, 30 min; active = over 0.2 and 3.5 SD of the protein, either way, in both replicates (recomputed)
[1] = compound: CS(=O)(=O)c1ccc(-c2cnc(N)c(C(=O)Nc3ccccc3)n2)cc1
In short: (§1)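 K562 cells at 2×10^6 cells/mL were given 10 μM compound for 30 min. Aliquots then went through 3 min of heating across 48°C-58°C, were pooled, and were extracted in PBS with 0.5% NP-40 at 4°C, and the supernatant after 21,000xg for 90 min was quantified by TMTpro 16plex LC-MS/MS with channel sums equalised. Thermal stability relative to control samples, from duplicates, is given as log2 fold change.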

Chains of the proteins cited; added tags and fusions are not shown. Lines headed by an entry give the natural chain unless they say otherwise; changes in a name come on top.
UniProt O00429, whole entry, looked up: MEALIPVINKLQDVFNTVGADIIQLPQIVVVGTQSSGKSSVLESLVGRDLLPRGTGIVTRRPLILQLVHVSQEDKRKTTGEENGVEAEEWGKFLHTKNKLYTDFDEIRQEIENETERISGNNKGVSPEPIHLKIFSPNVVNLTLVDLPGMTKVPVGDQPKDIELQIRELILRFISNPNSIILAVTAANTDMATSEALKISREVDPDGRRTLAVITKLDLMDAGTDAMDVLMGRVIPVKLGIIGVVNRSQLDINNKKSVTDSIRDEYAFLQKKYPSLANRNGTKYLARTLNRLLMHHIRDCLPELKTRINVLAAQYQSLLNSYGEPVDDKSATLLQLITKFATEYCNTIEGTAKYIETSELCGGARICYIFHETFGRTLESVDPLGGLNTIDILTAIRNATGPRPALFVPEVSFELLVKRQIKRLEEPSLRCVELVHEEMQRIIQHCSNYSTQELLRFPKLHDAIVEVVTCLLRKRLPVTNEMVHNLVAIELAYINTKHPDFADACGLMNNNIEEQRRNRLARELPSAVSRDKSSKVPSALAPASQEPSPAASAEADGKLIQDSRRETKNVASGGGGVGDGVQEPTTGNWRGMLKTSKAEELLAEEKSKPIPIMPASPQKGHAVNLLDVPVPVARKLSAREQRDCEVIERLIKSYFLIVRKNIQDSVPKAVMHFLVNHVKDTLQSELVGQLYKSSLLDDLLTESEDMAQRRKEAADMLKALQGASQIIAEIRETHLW
UniProt Q99615: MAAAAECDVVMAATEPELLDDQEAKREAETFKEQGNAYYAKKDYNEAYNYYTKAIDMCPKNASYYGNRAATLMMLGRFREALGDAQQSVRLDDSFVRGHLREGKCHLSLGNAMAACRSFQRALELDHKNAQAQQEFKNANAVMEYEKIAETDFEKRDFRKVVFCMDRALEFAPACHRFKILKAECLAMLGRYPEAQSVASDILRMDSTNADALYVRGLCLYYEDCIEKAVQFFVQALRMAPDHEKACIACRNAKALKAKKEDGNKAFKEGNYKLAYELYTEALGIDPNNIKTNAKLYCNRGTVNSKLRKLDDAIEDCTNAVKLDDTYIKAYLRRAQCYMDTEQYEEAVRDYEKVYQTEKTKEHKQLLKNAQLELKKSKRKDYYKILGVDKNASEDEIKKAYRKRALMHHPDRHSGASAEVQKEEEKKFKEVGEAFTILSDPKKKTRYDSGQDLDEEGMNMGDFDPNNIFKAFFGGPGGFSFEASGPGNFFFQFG
UniProt Q7L591: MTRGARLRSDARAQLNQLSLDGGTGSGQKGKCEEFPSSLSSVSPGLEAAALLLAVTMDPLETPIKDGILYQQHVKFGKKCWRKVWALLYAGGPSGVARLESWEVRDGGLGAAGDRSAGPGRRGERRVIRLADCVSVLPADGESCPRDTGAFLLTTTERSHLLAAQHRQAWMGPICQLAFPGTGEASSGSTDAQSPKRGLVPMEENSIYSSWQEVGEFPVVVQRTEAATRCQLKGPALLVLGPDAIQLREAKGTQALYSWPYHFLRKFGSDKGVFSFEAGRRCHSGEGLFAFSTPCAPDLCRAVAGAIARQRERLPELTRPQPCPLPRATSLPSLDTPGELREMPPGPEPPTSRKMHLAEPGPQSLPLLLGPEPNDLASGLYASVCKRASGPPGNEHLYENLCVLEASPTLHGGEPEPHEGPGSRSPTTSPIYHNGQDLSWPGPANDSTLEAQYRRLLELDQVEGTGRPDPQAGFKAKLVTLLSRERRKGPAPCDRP
UniProt Q16254: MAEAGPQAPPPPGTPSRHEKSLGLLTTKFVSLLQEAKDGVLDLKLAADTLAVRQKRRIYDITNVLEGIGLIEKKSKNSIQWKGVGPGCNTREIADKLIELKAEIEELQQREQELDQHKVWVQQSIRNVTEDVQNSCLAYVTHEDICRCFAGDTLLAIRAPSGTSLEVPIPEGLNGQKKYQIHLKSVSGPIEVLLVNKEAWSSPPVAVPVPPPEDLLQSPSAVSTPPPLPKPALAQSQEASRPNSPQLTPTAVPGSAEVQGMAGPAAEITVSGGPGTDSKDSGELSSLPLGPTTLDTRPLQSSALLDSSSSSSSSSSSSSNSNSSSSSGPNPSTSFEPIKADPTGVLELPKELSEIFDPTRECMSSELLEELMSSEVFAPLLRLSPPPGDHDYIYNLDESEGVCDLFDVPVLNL
UniProt Q9BV94: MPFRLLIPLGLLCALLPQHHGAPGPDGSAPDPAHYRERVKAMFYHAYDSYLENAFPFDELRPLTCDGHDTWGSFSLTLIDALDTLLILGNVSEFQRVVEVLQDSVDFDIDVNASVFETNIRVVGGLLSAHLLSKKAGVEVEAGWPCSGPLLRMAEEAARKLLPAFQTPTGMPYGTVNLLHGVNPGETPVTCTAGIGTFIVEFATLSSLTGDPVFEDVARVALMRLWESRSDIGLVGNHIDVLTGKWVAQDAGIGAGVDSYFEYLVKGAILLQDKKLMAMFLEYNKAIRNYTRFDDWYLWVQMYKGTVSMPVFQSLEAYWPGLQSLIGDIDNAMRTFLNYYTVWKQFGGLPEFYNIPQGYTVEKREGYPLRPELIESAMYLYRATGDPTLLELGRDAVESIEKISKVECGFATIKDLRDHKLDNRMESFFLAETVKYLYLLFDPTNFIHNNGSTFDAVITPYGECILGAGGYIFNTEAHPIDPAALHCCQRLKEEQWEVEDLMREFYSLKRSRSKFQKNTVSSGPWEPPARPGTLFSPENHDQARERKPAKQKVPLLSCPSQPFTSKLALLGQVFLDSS
UniProt P50570: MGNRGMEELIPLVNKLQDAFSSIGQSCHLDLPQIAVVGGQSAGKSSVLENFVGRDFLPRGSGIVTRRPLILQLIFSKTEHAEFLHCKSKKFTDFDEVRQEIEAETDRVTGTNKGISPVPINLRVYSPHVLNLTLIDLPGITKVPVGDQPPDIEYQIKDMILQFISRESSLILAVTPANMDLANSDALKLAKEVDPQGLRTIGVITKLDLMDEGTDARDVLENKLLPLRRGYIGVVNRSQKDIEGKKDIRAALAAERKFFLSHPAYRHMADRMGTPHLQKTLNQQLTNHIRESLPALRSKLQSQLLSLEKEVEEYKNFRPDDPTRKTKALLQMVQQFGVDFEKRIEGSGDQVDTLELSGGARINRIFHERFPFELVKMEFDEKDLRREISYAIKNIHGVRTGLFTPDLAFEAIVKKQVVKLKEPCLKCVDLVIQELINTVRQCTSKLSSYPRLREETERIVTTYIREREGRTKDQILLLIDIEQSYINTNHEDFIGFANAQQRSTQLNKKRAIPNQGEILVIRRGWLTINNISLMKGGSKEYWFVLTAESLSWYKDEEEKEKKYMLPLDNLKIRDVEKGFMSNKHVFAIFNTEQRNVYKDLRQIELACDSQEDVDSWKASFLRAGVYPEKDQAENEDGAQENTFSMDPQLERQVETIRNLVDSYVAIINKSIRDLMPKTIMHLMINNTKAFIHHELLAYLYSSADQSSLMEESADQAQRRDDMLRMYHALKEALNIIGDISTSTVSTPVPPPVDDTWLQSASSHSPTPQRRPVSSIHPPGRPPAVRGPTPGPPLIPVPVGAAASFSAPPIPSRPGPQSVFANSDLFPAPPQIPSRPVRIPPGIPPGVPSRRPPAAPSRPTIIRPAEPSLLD
UniProt Q96DC8: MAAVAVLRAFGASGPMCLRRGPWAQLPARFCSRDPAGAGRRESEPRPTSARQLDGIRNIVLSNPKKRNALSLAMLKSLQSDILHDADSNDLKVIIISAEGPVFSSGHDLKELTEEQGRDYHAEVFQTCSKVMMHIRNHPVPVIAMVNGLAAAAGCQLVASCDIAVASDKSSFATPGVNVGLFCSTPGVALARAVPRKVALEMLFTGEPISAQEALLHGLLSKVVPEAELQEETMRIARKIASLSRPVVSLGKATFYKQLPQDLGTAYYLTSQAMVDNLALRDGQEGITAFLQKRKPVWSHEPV

crizotinib = compound: C[C@@H](Oc1cc(-c2cnn(C3CCNCC3)c2)cnc1N)c1c(Cl)ccc(F)c1Cl [crizotinib]
In short: as §1

[2] = compound: C[C@@H]1COCCN1C2=NC(=NC(=C2)C3(CC3)S(=O)(=O)C)C4=C5C=CNC5=CC=C4
In short: as §1

[3] = compound: C[C@H](C1=CC=C(C=C1)C(=O)NC2=C3C=CNC3=NC=C2)N
In short: as §1

duvelisib = compound: C[C@H](Nc1ncnc2nc[nH]c12)c1cc2cccc(Cl)c2c(=O)n1-c1ccccc1 [duvelisib]
In short: as §1

tozasertib = compound: Cc1cc(Nc2cc(N3CCN(C)CC3)nc(Sc3ccc(NC(=O)C4CC4)cc3)n2)n[nH]1 [tozasertib]
In short: as §1

[4] = compound: Cc1cc(SCc2sc(-c3ccc(C(F)(F)F)cc3)nc2C)ccc1OCC(=O)O
In short: as §1

doramapimod = compound: Cc1ccc(-n2nc(C(C)(C)C)cc2NC(=O)Nc2ccc(OCCN3CCOCC3)c3ccccc23)cc1 [doramapimod]
In short: as §1

ispinesib = compound: Cc1ccc(C(=O)N(CCCN)[C@@H](c2nc3cc(Cl)ccc3c(=O)n2Cc2ccccc2)C(C)C)cc1 [ispinesib]
In short: as §1

bafetinib = compound: Cc1ccc(NC(=O)c2ccc(CN3CC[C@H](N(C)C)C3)c(C(F)(F)F)c2)cc1Nc1nccc(-c2cncnc2)n1 [bafetinib]
In short: as §1

nilotinib = compound: Cc1cn(-c2cc(NC(=O)c3ccc(C)c(Nc4nccc(-c5cccnc5)n4)c3)cc(C(F)(F)F)c2)cn1 [nilotinib]
In short: as §1

[5] = compound: Cc1nc(Nc2n[nH]c3c2CN(C(=O)N[C@H](CN(C)C)c2ccccc2)C3(C)C)c2sccc2n1
In short: as §1

dasatinib = compound: Cc1nc(Nc2ncc(C(=O)Nc3c(C)cccc3Cl)s2)cc(N2CCN(CCO)CC2)n1 [dasatinib]
In short: as §1

[6] = compound: Cc1ncc(-c2ccnc(Nc3ccc(S(C)(=O)=O)cc3)n2)n1C(C)C
In short: as §1

[7] = compound: Cn1cc(-c2ccc3c(c2)CCN3C(=O)Cc2cccc(C(F)(F)F)c2)c2c(N)ncnc21
In short: as §1

[8] = compound: Cn1cc(-c2ccc3nnc(C(F)(F)c4ccc5ncccc5c4)n3n2)cn1
In short: as §1

tipifarnib = compound: Cn1cncc1[C@@](N)(c1ccc(Cl)cc1)c1ccc2c(c1)c(-c1cccc(Cl)c1)cc(=O)n2C [tipifarnib]
In short: as §1

mubritinib = compound: FC(F)(F)c1ccc(/C=C/c2nc(COc3ccc(CCCCn4ccnn4)cc3)co2)cc1 [mubritinib]
In short: as §1

gandotinib = compound: Cc1cc(Nc2cc(CN3CCOCC3)c3nc(C)c(Cc4ccc(Cl)cc4F)n3n2)n[nH]1 [gandotinib]
In short: as §1

[9] = compound: Cc1cccc(CC(=O)N2CCc3c2ccc(-c2cn(C)c4ncnc(N)c24)c3F)n1
In short: as §1

Measured: log2 fold change

DPY19L1, A0A1B0GW05
inactive: [1] 0.031 | crizotinib -0.034 | [2] 0.071 | [3] 0.066 | duvelisib 0.052 | tozasertib -0.021 | [4] 0.034 | doramapimod 0.048 | ispinesib 0.115 | bafetinib 0.078 | nilotinib -0.04 | [5] 0.004 | dasatinib 0.043 | [6] -0.029 | [7] -0.076 | [8] -0.102 | tipifarnib 0.019 | mubritinib 0.114

DNM1L isoform 2 (UniProt O00429)
inactive: [1] -0.043 | crizotinib -0.081 | [3] 0.133 | duvelisib -0.364 | gandotinib 0.118 | tozasertib -0.021 | [4] 0.181 | doramapimod 0.058 | ispinesib 0.056 | bafetinib 0.021 | [9] -0.012 | nilotinib -0.039 | [5] -0.071 | dasatinib -0.117 | [6] -0.102 | [7] 0.055 | [8] -0.106 | tipifarnib 0.091 | mubritinib -0.084

DOCK1 (UniProt Q14185)
inactive: [1] 0.09 | [2] 0.034 | [3] 0.367 | duvelisib 0.237 | [4] -0.085 | ispinesib -0.198 | bafetinib -0.047 | dasatinib 0.15 | [7] -0.028 | [8] 0.147 | tipifarnib 0.138

DNAJC7 (UniProt Q99615)
inactive: [1] 0.027 | crizotinib -0.014 | [2] 0.048 | [3] -0.028 | gandotinib -0.088 | [4] 0.095 | doramapimod -0.057 | ispinesib 0.001 | bafetinib -0.047 | [9] 0.031 | nilotinib -0.107 | [5] -0.048 | dasatinib -0.136 | [6] 0.024 | [7] 0.068 | [8] 0.058 | tipifarnib -0.012 | mubritinib 0.037

2 entries drawn at random from the list so far:
DOCK1 (UniProt Q14185)
inactive: [1] 0.09 | [2] 0.034 | [3] 0.367 | duvelisib 0.237 | [4] -0.085 | ispinesib -0.198 | bafetinib -0.047 | dasatinib 0.15 | [7] -0.028 | [8] 0.147 | tipifarnib 0.138

DNM1L isoform 2 (UniProt O00429)
inactive: [1] -0.043 | crizotinib -0.081 | [3] 0.133 | duvelisib -0.364 | gandotinib 0.118 | tozasertib -0.021 | [4] 0.181 | doramapimod 0.058 | ispinesib 0.056 | bafetinib 0.021 | [9] -0.012 | nilotinib -0.039 | [5] -0.071 | dasatinib -0.117 | [6] -0.102 | [7] 0.055 | [8] -0.106 | tipifarnib 0.091 | mubritinib -0.084

Next results

DOK3 (UniProt Q7L591)
inactive: [1] -0.128 | [2] 0.046 | [3] -0.07 | duvelisib 0.164 | gandotinib 0.038 | tozasertib -0.177 | [4] -0.012 | bafetinib -0.083 | [9] -0.029 | dasatinib -0.072 | [7] 0.034 | tipifarnib 0.061 | mubritinib -0.081

E2F4 (UniProt Q16254)
inactive: [1] 0.04 | crizotinib -0.029 | [2] 0.024 | [3] -0.095 | gandotinib -0.034 | [4] -0.019 | doramapimod 0.024 | ispinesib -0.103 | bafetinib -0.053 | [9] -0.026 | nilotinib -0.016 | [5] -0.141 | dasatinib -0.095 | [6] 0.012 | [7] -0.007 | [8] -0.006 | tipifarnib -0.009 | mubritinib 0.01

EDEM2 (UniProt Q9BV94)
inactive: [1] 0.036 | crizotinib 0.024 | [2] -0.119 | [3] 0.163 | gandotinib -0.081 | [4] 0.111 | doramapimod 0.065 | ispinesib -0.04 | bafetinib 0.094 | [9] 0 | nilotinib -0.096 | [5] 0.003 | dasatinib 0.114 | [6] -0.011 | [7] -0.046 | [8] 0 | tipifarnib 0.15 | mubritinib -0.117

DPYSL2 (UniProt Q16555)
inactive: [1] 0.034 | crizotinib 0.025 | [2] -0.09 | [3] 0.023 | gandotinib -0.015 | [4] 0.082 | doramapimod 0.069 | bafetinib -0.114 | [9] 0.081 | nilotinib 0.046 | [5] -0.063 | dasatinib 0 | [6] 0.079 | [7] 0.042 | tipifarnib 0.015 | mubritinib -0.048

DNM2 isoform 4 (UniProt P50570)
inactive: [1] -0.302 | crizotinib -0.087 | [2] -0.039 | [3] -0.087 | gandotinib 0.126 | [4] 0.5 | doramapimod -0.203 | ispinesib 0.092 | bafetinib 0.154 | [9] 0.062 | nilotinib -0.006 | [5] 0.047 | dasatinib -0.007 | [6] -0.047 | [7] 0.006 | [8] 0.005 | mubritinib 0.108

ECHDC3 (UniProt Q96DC8)
inactive: [1] 0.173 | crizotinib 0.065 | [2] 0.068 | gandotinib -0.081 | tozasertib -0.06 | doramapimod -0.071 | ispinesib -0.1 | bafetinib -0.053 | [9] 0.023 | nilotinib -0.06 | [5] 0.197 | [6] -0.197 | [8] 0.086 | mubritinib 0.159
